The supplement of paper PMC8007513
The other results are listed elsewhere or left out. Single values are uncertain, as repeats are few or missing.

Test system: Saccharomyces cerevisiae BY4743
Test: growth (OD600) with compound + IPBC relative to untreated control; higher = less growth inhibition
Conditions: compound concentration: 133 uM; IPBC concentration: 0.5 ug/ml; 20 h
Experimental: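 NMCCC compounds (133 uM) combined with IPBC (0.5 ug/ml) against Saccharomyces cerevisiae BY4743 in YPD, 96-well plates. Growth was read as OD600 at 20 h and expressed as % of the untreated control. Single pass.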

| Compound | growth [%] |
| --- | --- |
| COc1ccccc1NC(=O)c1ccc(NC(=O)CSc2ccccn2)cc1 + CCCCNC(=O)OCC#CI [3-iodo-2-propynyl butylcarbamate (IPBC)] | 104 |
| Nc1cn(-c2ccc(C(F)(F)F)cn2)nc1Cl + CCCCNC(=O)OCC#CI [3-iodo-2-propynyl butylcarbamate (IPBC)] | 104 |
| N#Cc1ccc(CCC(=O)OCc2nnnn2-c2ccccc2)cc1 + CCCCNC(=O)OCC#CI [3-iodo-2-propynyl butylcarbamate (IPBC)] | 101 |
| Cc1cc(Br)cc(C)c1OCC(=O)Nc1sc2c(c1C(N)=O)CCCC2 + CCCCNC(=O)OCC#CI [3-iodo-2-propynyl butylcarbamate (IPBC)] | 82.8 |
| Cn1nc(C(C)(C)C)cc1NC(=O)COc1ccc(Oc2ccccn2)cc1 + CCCCNC(=O)OCC#CI [3-iodo-2-propynyl butylcarbamate (IPBC)] | 109 |
| CCOC(=O)\C1=C(/CN(CC)CC)N(C)C(=O)NC1C2=CC=CC=C2 (configuration not stated) + CCCCNC(=O)OCC#CI [3-iodo-2-propynyl butylcarbamate (IPBC)] | 85.1 |
| Brc1nnnn1-c1ccc2c(c1)OCCO2 + CCCCNC(=O)OCC#CI [3-iodo-2-propynyl butylcarbamate (IPBC)] | 87.6 |
| COC(=O)c1sc2nc(C)nc(N(C)Cc3cccnc3)c2c1C + CCCCNC(=O)OCC#CI [3-iodo-2-propynyl butylcarbamate (IPBC)] | 105 |
| CCCC(=O)Nc1cc2nn(-c3ccccc3)nc2cc1Cl + CCCCNC(=O)OCC#CI [3-iodo-2-propynyl butylcarbamate (IPBC)] | 84.4 |
| COC(=O)CNS(=O)(=O)c1ccc(NC(=O)c2cc3c(s2)CCCCCC3)cc1 + CCCCNC(=O)OCC#CI [3-iodo-2-propynyl butylcarbamate (IPBC)] | 89.4 |
| CCOC(=O)c1cc2n(n1)CC(C)(C(=O)NCCC(C)C)N(c1ccc(F)cc1)C2=O (configuration not stated) + CCCCNC(=O)OCC#CI [3-iodo-2-propynyl butylcarbamate (IPBC)] | 95.5 |
| CCOc1cc(C(=O)N(C)Cc2nc3ccccc3s2)cc(OCC)c1OCC + CCCCNC(=O)OCC#CI [3-iodo-2-propynyl butylcarbamate (IPBC)] | 105 |
| ClC1=CC=CC(=C1)NC(=O)CS\C2=N\C(=O)CC(N2)C3=CC=CC=C3 (configuration not stated) + CCCCNC(=O)OCC#CI [3-iodo-2-propynyl butylcarbamate (IPBC)] | 103 |
| CN(C)CCN(Cc1ccccc1)C(=O)Cn1c(=O)oc2ccccc21 + CCCCNC(=O)OCC#CI [3-iodo-2-propynyl butylcarbamate (IPBC)] | 76.5 |
| COc1ccccc1/N=C1\C(Cl)=C(O)OC1OC(=O)c1ccccc1Br (configuration not stated) + CCCCNC(=O)OCC#CI [3-iodo-2-propynyl butylcarbamate (IPBC)] | 100 |
| Cc1ccccc1NS(=O)(=O)c1ccc(C(=O)NN2CCCCC2)cc1 + CCCCNC(=O)OCC#CI [3-iodo-2-propynyl butylcarbamate (IPBC)] | 105 |
| CCOC(=O)C(Sc1nnc2ccccn12)c1ccccc1 (configuration not stated) + CCCCNC(=O)OCC#CI [3-iodo-2-propynyl butylcarbamate (IPBC)] | 101 |

Some of the entries so far, with bars between the fields:
Compound | growth [%]
Brc1nnnn1-c1ccc2c(c1)OCCO2 + CCCCNC(=O)OCC#CI [3-iodo-2-propynyl butylcarbamate (IPBC)] | 87.6
COC(=O)c1sc2nc(C)nc(N(C)Cc3cccnc3)c2c1C + CCCCNC(=O)OCC#CI [3-iodo-2-propynyl butylcarbamate (IPBC)] | 105
